# At least one compound was matched to its structure with a doubt left.
# Tested on: T84 intestinal epithelial monolayers
# Assay: Transepithelial resistance to passive ion flow of T84 monolayers
# Assay type: cell-based, human
# Settings: after 2 hr of 10 nM LXA4 on T84 monolayers
compound,measurement,value
"CCCCC[C@H](O)/C=C/C=C\C=C\C=C\[C@@H](O)[C@@H](O)CCCC(=O)O (relative stereo) [LXA4, (5S, 6R, 15S)-trihydroxy-7,9,13-trans-11-cis-eicosatetraenoic acid]",transepithelial resistance,1089÷108 ohm-cm^2
